Assay results reported in PMC4161320.

T1: Venus-Unk (Drosophila) (UniProt Q86B79)
T1 sequence: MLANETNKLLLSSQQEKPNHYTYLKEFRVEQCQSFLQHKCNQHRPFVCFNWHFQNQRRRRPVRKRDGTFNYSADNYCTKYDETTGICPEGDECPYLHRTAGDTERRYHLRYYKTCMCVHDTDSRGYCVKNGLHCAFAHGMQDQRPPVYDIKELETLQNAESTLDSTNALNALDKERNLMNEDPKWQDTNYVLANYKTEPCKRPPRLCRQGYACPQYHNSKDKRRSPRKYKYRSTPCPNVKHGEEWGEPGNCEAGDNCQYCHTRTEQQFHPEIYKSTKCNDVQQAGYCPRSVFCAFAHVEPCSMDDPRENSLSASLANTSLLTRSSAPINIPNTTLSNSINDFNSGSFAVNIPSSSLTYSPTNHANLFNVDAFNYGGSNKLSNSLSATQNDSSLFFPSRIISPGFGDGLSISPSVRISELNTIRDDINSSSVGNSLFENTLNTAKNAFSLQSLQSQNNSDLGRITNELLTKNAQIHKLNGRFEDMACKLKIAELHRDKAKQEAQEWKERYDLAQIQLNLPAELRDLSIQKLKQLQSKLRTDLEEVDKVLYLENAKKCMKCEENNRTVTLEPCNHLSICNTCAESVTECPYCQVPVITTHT


Experiments:
Assay in all cases: co-IP; tagged proteins co-expressed in S2 cells; lysis in 25 mM Tris pH 8, 150 mM NaCl, 5% glycerol, 1% triton at 4°C; IP with rabbit anti-GFP (Venus-Unk) or rabbit anti-FLAG, Protein G agarose; immunoblot with anti-GFP and anti-FLAG M2
Venus-Unk (Drosophila) = target: T1, Venus-Unk (Drosophila)
FLAG-D-Pax2 (Drosophila) = target: FLAG-D-Pax2 (Drosophila)
FLAG-HdcS (Drosophila) = FLAG-HdcS (Drosophila) (UniProt Q9N2M8)

binding (Venus-Unk (Drosophila))	binding (FLAG-D-Pax2 (Drosophila))	binding (FLAG-HdcS (Drosophila))	Molecule
binds			FLAG-HdcS (from UniProt Q9N2M8)
	binds	binds	Venus-Unk (protein, UniProt Q86B79 1-599) MLANETNKLLLSSQQEKPNHYTYLKEFRVEQCQSFLQHKCNQHRPFVCFNWHFQNQRRRRPVRKRDGTFNYSADNYCTKYDETTGICPEGDECPYLHRTAGDTERRYHLRYYKTCMCVHDTDSRGYCVKNGLHCAFAHGMQDQRPPVYDIKELETLQNAESTLDSTNALNALDKERNLMNEDPKWQDTNYVLANYKTEPCKRPPRLCRQGYACPQYHNSKDKRRSPRKYKYRSTPCPNVKHGEEWGEPGNCEAGDNCQYCHTRTEQQFHPEIYKSTKCNDVQQAGYCPRSVFCAFAHVEPCSMDDPRENSLSASLANTSLLTRSSAPINIPNTTLSNSINDFNSGSFAVNIPSSSLTYSPTNHANLFNVDAFNYGGSNKLSNSLSATQNDSSLFFPSRIISPGFGDGLSISPSVRISELNTIRDDINSSSVGNSLFENTLNTAKNAFSLQSLQSQNNSDLGRITNELLTKNAQIHKLNGRFEDMACKLKIAELHRDKAKQEAQEWKERYDLAQIQLNLPAELRDLSIQKLKQLQSKLRTDLEEVDKVLYLENAKKCMKCEENNRTVTLEPCNHLSICNTCAESVTECPYCQVPVITTHT

These are yes or no findings as the source states them, for the method shown. In cells and extracts the contact can be indirect. Binding calls can cover weak binding; strength is not graded here.
